Experimental data taken from patent US11407812B2, “Targeted expression of chloride channels and methods of use thereof” (GOLEINI INC., priority 2015, dated 2022).

Conditions: male Sprague Dawley rat plasma, endogenous, n=6

NCC(=O)O [Glycine]
plasma glycine levels, average (mean±SD): 240.9 ± 45.2 µM
plasma glycine levels, range: 184 to 307 µM
